## Results from one PubChem assay

The results are deposited in PubChem (AID1224904; Broad Institute, 2016).

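Control-channel Italica luciferase signal in doxycycline-induced 293T-iDUX4 cells, given as percent activity after a 24-hour treatment. The test concentration is not given here. Percent change in the Italica control signal; more negative values mean stronger inhibition, which points to nonspecific, tet-on or cytotoxic effects.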

Values are in %. Common to all entries: measured here: Italica tet-on control reporter. This is a side read-out of the assay, for part of the compounds, not drawn at random.

Result for CCS(=O)(=O)N1CC2(CN(Cc3cccc(Cl)c3)[C@H](CO)c3c2c2ccc(OC)cc2n3C)C1 was activity change -26.83%.
Result for CC(C)OC(=O)N(C)C[C@@H]1OCc2ccccc2-c2c(n(C)c3ccccc23)C(=O)N([C@H](C)CO)C[C@@H]1C was activity change -18.82%.
Result for COc1ccc(C#Cc2ccc([C@@H]3[C@H]4CN(C(=O)Cc5ccccc5)CCCCN4[C@H]3CO)cc2)cc1 was activity change -41.46%.
Result for CCCC#Cc1ccc([C@H]2[C@@H](CO)N3C(=O)CN(C(=O)Nc4cccc(F)c4)C[C@@H]23)cc1 was activity change -18.85%.
Result for O=C(CC1CC1)N1[C@@H](CO)[C@@H](c2ccccc2)C12CN(S(=O)(=O)c1ccccc1)C2 was activity change -2.057%.
Result for Cc1ccc(-c2ccc([C@H]3[C@@H](CO)N4C(=O)CN(C(=O)Nc5ccc(F)cc5)C[C@H]34)cc2)cc1 was activity change -13.47%.
Result for O=S(=O)(c1ccccc1F)N1CC[C@H]2[C@H](CO)Nc3ccc(-c4ccc(F)cc4)cc3[C@H]21 was activity change -6.815%.
Result for O=C(c1cccc(F)c1)N1CCCCN2[C@@H](CO)[C@H](c3ccc(/C=C/c4ccccc4)cc3)[C@@H]2C1 was activity change -0.7881%.
Result for O=S(=O)(c1ccccc1F)N1CC[C@@H]2[C@@H](CO)Nc3ccc(-c4ccc(F)cc4)cc3[C@@H]21 was activity change -48%.
Result for O=C(c1cccnc1)N1CC(=O)N2[C@H](C1)[C@@H](c1ccc(/C=C/c3ccccc3)cc1)[C@@H]2CO was activity change -5.374%.
Result for C[C@@H](NC(=O)C[C@H]1C[C@H]2c3cc(NC(=O)Nc4ccccc4F)ccc3O[C@H]2[C@H](CO)O1)c1ccccc1 was activity change -17.71%.
Result for COc1ccc(NC(=O)N2CCC3(CC2)CN(CC2CC2)[C@@H](CO)c2c3c3ccc(OC)cc3n2C)cc1 was activity change -8.339%.
Result for N#C[C@H]1[C@H](c2ccc(C#Cc3ccccc3F)cc2)[C@H](CO)N1C(=O)C1CCC1 was activity change -48.73%.
Result for COc1ccccc1S(=O)(=O)N1CC[C@@H]2[C@@H](CO)N(C)c3ccc(-c4ccc(C#N)cc4)cc3[C@@H]21 was activity change -10.42%.
Result for Cc1cccc(-c2ccc([C@@H]3[C@H](CO)N4CCCCN(CCC(F)(F)F)C[C@@H]34)cc2)c1 was activity change -23.29%.
Result for c1cncc(-c2ccc(C3[C@@H]4CN(Cc5ccc6c(c5)OCO6)C[C@H]3N4)cc2)c1 (stereo partly shown) was activity change -33.79%.
Result for O=C1CNC[C@@H]2[C@H](c3ccc(C#Cc4cccnc4)cc3)[C@H](CO)N12 was activity change 8.09%.
Result for CC(C)CC#Cc1ccc([C@@H]2[C@@H](CO)N3C(=O)CN(S(=O)(=O)c4cccc(F)c4)C[C@H]23)cc1 was activity change -7.961%.
Result for Cc1ccccc1S(=O)(=O)N1CCCCN2[C@H](CO)[C@@H](c3ccc(C#CCN(C)C)cc3)[C@@H]2C1 was activity change -4.509%.
Result for O=C(c1cccc(F)c1)N1CC2(C1)[C@H](c1ccccc1)[C@H](CO)N2C(=O)C1CCC1 was activity change -19.67%.
Result for CCc1cnc(N2[C@H](C#N)[C@@H](c3ccccc3C3=CCCCC3)[C@@H]2CO)s1 was activity change -6.882%.
Result for C[C@@H]1CN([C@H](C)CO)C(=O)c2ccccc2-c2ccccc2CO[C@@H]1CN(C)Cc1ccc(F)cc1 was activity change 2.184%.

For reference, 2 entries once more:

- O=S(=O)(c1ccccc1F)N1CC[C@H]2[C@H](CO)Nc3ccc(-c4ccc(F)cc4)cc3[C@H]21 | activity change -6.815%
- c1cncc(-c2ccc(C3[C@@H]4CN(Cc5ccc6c(c5)OCO6)C[C@H]3N4)cc2)c1 (stereo partly shown) | activity change -33.79%